Measurements reported in PubChem BioAssay AID686938 (Drosophila RNAi Screening Center, 2013).
The screen tested about 23,000 reagents; below is an unselected part of those that have a named target and a result. Of all reagents, 75 (0.33%) got an active call. 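Raw plate signals without normalisation; calls rest on plate z-scores that were not deposited; ratio present for only 364 wells.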 Names joined by + are all predicted targets of the reagent. Reagent sequences are not shown. Not given: the dose of the treatment.

Purpose: 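Looking for CRAC channel components and the factors controlling them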 (primary screen)
Cells: Drosophila S2R+ cells
Reagent: long dsRNA against Drosophila genes, about 0.25 µg dsRNA per well, roughly 10,000 cells
Time to read-out: 5 days of knock-down before the calcium assay
Treatment: thapsigargin (SERCA pump blocker) to empty calcium stores; entry signal taken 4 min after adding it
Read-out: 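Duplicate raw fluo-4 intensities per well from a plate reader, at rest and four minutes after thapsigargin emptied calcium stores; entry-to-rest ratio filled for only some wells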
Reading the numbers: calcium entry signal: higher = stronger calcium signal after store depletion; entry to resting ratio: higher = more calcium entry relative to resting level; resting calcium signal: higher = higher resting calcium signal
Active means: 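Called when the plate z-score of the entry-to-rest ratio, mean of duplicates, falls below −3; wells with low overall dye signal (Fmax z below −2) or more than five off-targets excluded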
Calls: active = strongly reduced calcium entry; inactive = no strong reduction

no.	gene	amplicon	calcium entry signal, replicate 1 (fluorescence units)	calcium entry signal, replicate 2 (fluorescence units)	entry to resting ratio	resting calcium signal, replicate 1 (fluorescence units)	resting calcium signal, replicate 2 (fluorescence units)	activity call
1	rg	DRSC17377	3.62e7	3.88e7		2.16e7	1.65e7	inactive
2	rg	DRSC17726	2.87e7	2.04e7		1.21e7	9.86e6	inactive
3	rg	DRSC18049	3.61e7	3.03e7		1.66e7	1.56e7	inactive
4	CG6770	DRSC02992	3.54e7	7.55e7		1.71e7	3.58e7	inactive
5	CG9632	DRSC16528	3.01e7	4.86e7		1.56e7	5.42e7	inactive
6	AstC-R1	DRSC10799	3.20e7	4.87e7		1.66e7	1.73e7	inactive
7	lncRNA:CR43493 + l(1)G0196	DRSC20628	3.68e7	3.88e7		1.76e7	1.77e7	inactive
8	CG17169	DRSC20905	3.29e7	4.44e7		1.82e7	2.04e7	inactive
9	CG14227	DRSC19584	3.98e7	2.68e7		1.99e7	1.38e7	inactive
10	Poxm	DRSC16793	3.19e7	5.26e7		1.60e7	2.40e7	inactive
11	Poxm	DRSC22839	2.88e7	4.48e7		1.39e7	1.90e7	inactive
12	Git	DRSC06620	4.32e7	4.42e7		2.91e7	1.81e7	inactive
13	CG15909	DRSC04977	4.09e7	5.23e7		2.07e7	2.27e7	inactive
14	CG30008	DRSC21576	3.85e7	3.06e7		2.34e7	1.51e7	inactive
15	eco	DRSC11006	3.90e7	2.97e7		3.06e7	1.50e7	inactive
16	Snap25	DRSC21228	4.24e7	4.60e7		2.13e7	2.08e7	inactive
17	Snap25	DRSC21236	8.15e7	4.61e7		2.97e7	2.18e7	inactive
18	Obp58d	DRSC04162	3.90e7	4.03e7		1.91e7	1.84e7	inactive
19	CG8314	DRSC07144	3.14e7	2.34e7		1.45e7	1.30e7	inactive
20	MRP	DRSC02942	1.37e8			4.97e7		inactive
21	mRpL18	DRSC06142	4.27e7	3.63e7		1.94e7	1.44e7	inactive
22	CG34256	DRSC09582	2.28e7	2.21e7		1.13e7	1.09e7	inactive
23	RecQ4	DRSC11265	3.10e7	3.27e7		1.42e7	1.52e7	inactive
24	CG14086	DRSC10090	2.70e7	4.23e7		1.34e7	1.80e7	inactive
25	y	DRSC18853	4.02e7	4.20e7	2.4	1.68e7	1.84e7	inactive
26	rush	DRSC18568	1.72e7	2.56e7		8.79e6	1.27e7	inactive
27	mus81	DRSC18180	3.62e7	5.83e7	2	1.85e7	2.23e7	inactive
28	mus81	DRSC18644	3.78e7	5.48e7	2.1	1.82e7	2.11e7	inactive
29	Swt1	DRSC20028	3.59e7	4.10e7		1.63e7	1.83e7	inactive
30	nan	DRSC10551	4.31e7	5.31e7		1.93e7	2.24e7	inactive
31	CG17777	DRSC18137	3.84e7	5.53e7	2	1.93e7	2.49e7	inactive
32	CG1208	DRSC12190	3.86e7	4.43e7		1.69e7	1.92e7	inactive
33	Trxr1	DRSC18668	2.23e7	2.41e7		1.21e7	1.18e7	inactive
34	Trxr1	DRSC22293	3.25e7	4.60e7		1.64e7	2.43e7	inactive
35	TwdlE	DRSC02392	2.47e7	3.26e7		1.08e7	1.45e7	inactive
36	rasp	DRSC08191	3.63e7	3.30e7		1.97e7	1.51e7	inactive
37	CG13947	DRSC00365	4.33e7	5.02e7		1.89e7	2.03e7	inactive
38	CG10347	DRSC19352	3.26e7	4.54e7		1.67e7	2.12e7	inactive
39	CG33109	DRSC16533	2.22e7	4.13e7		1.11e7	4.65e7	inactive
40	mino	DRSC14132	3.99e7	4.68e7		1.88e7	2.09e7	inactive
41	MED18	DRSC18549	3.08e7	4.83e7	2.1	1.47e7	1.94e7	inactive
42	snRNP-U1-C	DRSC15804	1.68e7	1.94e7		1.06e7	4.60e7	inactive
43	bab2	DRSC08150	2.89e7	3.34e7		1.49e7	1.62e7	inactive
44	bab2	DRSC08380	2.54e7	2.96e7		1.42e7	1.35e7	inactive
45	CG6753	DRSC16108	3.49e7	3.69e7		1.90e7	1.93e7	inactive
46	Ibf1	DRSC16419	3.64e7	3.65e7		1.76e7	1.68e7	inactive
47	dl	DRSC03520	4.34e7			2.47e7		inactive
48	dl	DRSC03521	3.39e7	3.18e7		1.85e7	1.40e7	inactive
49	raw	DRSC03599	3.57e7	3.98e7		1.57e7	1.92e7	inactive
50	raw	DRSC03600	3.21e7	4.55e7		1.44e7	2.17e7	inactive
51	CG14195	DRSC19550	5.14e7	6.22e7		2.55e7	2.58e7	inactive
52	CG11131	DRSC11636	2.31e7	3.79e7		1.09e7	1.58e7	inactive
53	CG11131	DRSC21736	2.62e7	4.37e7		1.35e7	1.78e7	inactive
54	SmB	DRSC03437	2.10e7			1.81e7		inactive
55	CG5402	DRSC15792	2.19e7	4.63e7		1.25e7	2.03e7	inactive
56	CG42675	DRSC12157	3.52e7	4.66e7		1.44e7	1.95e7	inactive
57	CG42675	DRSC21868	1.79e7	2.60e7		9.85e6	1.30e7	inactive
58	EndoGI	DRSC01964	5.04e7	3.75e7		2.16e7	1.88e7	inactive
59	trr	DRSC18845	2.44e7	2.79e7		1.15e7	1.33e7	inactive
60	trr	DRSC23290	4.40e7	2.33e7		2.05e7	1.09e7	inactive
61	CG31600	DRSC22541	3.29e7	3.09e7		1.75e7	1.32e7	inactive
62	psq	DRSC07668	3.52e7	3.91e7		2.06e7	2.04e7	inactive
63	psq	DRSC23094	4.42e7	4.45e7		2.15e7	1.95e7	inactive
64	Lcp9	DRSC04287	4.48e7	5.58e7		2.21e7	2.39e7	inactive
65	Nop56	DRSC14699	1.64e7	1.87e7		1.01e7	1.02e7	inactive
66	tws	DRSC12767	3.13e7	4.08e7		1.53e7	2.05e7	inactive
67	tws	DRSC17092	2.76e7	4.48e7		1.42e7	2.36e7	inactive
68	mIF3	DRSC06290	2.93e7	3.97e7		1.59e7	1.67e7	inactive
69	mRpL37	DRSC16062	4.30e7	3.54e7		1.84e7	1.72e7	inactive
70	Nepl10	DRSC07212	3.12e7	4.79e7		1.50e7	2.23e7	inactive
71	Kif3C	DRSC17209	5.50e7	5.47e7	2	2.72e7	2.28e7	inactive
72	Kif3C	DRSC17210	5.56e7	4.72e7	2.2	2.58e7	1.93e7	inactive
73	kn	DRSC05505	3.33e7	5.97e7		1.46e7	2.66e7	inactive
74	kn	DRSC05507	4.01e7	3.10e7		1.81e7	1.34e7	inactive
75	kn	DRSC06196	3.10e7	3.40e7		1.68e7	1.62e7	inactive
76	kn	DRSC07637	3.30e7	3.65e7		1.76e7	1.68e7	inactive
77	kn	DRSC21533	3.75e7	4.08e7		2.22e7	1.95e7	inactive
